Data published in US12268683B2, “Compounds and methods for synergistic activation of M channels” (THE REGENTS OF THE UNIVERSITY OF CALIFORNIA, priority 2018, dated 2025).

Molecular target: KCNQ1 (Homo sapiens, UniProt P51787)
Assay: TEVC of homomeric KCNQ1 expressed in Xenopus oocytes
Type: cell-based

effect on KCNQ1 (in words): IVA-insensitive
SMILES: CC(C)CC(=O)O [IVA, isovaleric acid]
